Results are given in words; binding and its absence hold for the method and conditions named. Sequences can lack the tags named with a protein. Values belong to the binder of their own block, whether it stands above or below them.
How the values were obtained:
Experiment in all cases: SPR; Biacore3000, CM5 chip coated with DNase E7; extrinsic proteins as Im7 fusion proteins overexpressed in E. coli; who was immobilised is not told in the main text; details in the supplementary material; both purified
[1] = target: T1, Im7 fusion protein of Psb27 (Thermosynechococcus elongatus), Q8DG60; conditions: remark: other sources report otherwise
T1 chain: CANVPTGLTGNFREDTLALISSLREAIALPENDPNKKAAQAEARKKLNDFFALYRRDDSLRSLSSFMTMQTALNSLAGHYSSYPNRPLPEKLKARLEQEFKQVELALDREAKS

[2] = target: T2, Im7 fusion protein of CyanoQ (Thermosynechococcus elongatus) (UniProt Q8DHA2)
T2 sequence: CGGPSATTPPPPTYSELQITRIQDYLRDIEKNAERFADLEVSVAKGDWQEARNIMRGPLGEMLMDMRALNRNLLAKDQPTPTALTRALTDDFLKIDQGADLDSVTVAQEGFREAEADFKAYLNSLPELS

[3] = target: T3, Im7 fusion protein of CyanoP (Thermosynechococcus elongatus) (UniProt Q8DH84)
T3 sequence: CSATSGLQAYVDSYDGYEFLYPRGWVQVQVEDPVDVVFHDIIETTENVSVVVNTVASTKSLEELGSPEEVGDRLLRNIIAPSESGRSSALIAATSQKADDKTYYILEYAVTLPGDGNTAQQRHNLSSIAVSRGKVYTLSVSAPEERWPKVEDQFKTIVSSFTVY

binding [1]: no binding (tested: up to 100 μM)
B1: CyanoP, Q8DH84 20-183 (protein)
chain: T3 sequence

binding [2]: no binding (tested: up to 100 μM)
B2: CyanoP (protein, UniProt Q8DH84 20-183)
chain: T3 sequence

binding [3]: no binding (tested: up to 100 μM)
B3: PsbV (protein, UniProt P0A386 27-163)
chain: AELTPEVLTVPLNSEGKTITLTEKQYLEGKRLFQYACASCHVGGITKTNPSLDLRTETLALATPPRDNIEGLVDYMKNPTTYDGEQEIAEVHPSLRSADIFPKMRNLTEKDLVAIAGHILVEPKILGDKWGGGKVYY

— publication PMC4220643
